No constants are given. Whether binding was seen depends on the method and setting. Binding seen in cells or lysates may run through a third protein. Some results given as binding are weak or reduced against the parent protein; the word gives no strength. For part of these data: Where a sequence is shown, tags or fusion partners need not be part of it.
Columns and labels:
[1] = target: T1, Flag-Mfn2 with deletion of amino acids 649–693 (UniProt Q80U63); test: co-IP; 293T cells transfected with wild-type Flag-Mfn2 or its deletion mutants, immunoprecipitation
T1 sequence: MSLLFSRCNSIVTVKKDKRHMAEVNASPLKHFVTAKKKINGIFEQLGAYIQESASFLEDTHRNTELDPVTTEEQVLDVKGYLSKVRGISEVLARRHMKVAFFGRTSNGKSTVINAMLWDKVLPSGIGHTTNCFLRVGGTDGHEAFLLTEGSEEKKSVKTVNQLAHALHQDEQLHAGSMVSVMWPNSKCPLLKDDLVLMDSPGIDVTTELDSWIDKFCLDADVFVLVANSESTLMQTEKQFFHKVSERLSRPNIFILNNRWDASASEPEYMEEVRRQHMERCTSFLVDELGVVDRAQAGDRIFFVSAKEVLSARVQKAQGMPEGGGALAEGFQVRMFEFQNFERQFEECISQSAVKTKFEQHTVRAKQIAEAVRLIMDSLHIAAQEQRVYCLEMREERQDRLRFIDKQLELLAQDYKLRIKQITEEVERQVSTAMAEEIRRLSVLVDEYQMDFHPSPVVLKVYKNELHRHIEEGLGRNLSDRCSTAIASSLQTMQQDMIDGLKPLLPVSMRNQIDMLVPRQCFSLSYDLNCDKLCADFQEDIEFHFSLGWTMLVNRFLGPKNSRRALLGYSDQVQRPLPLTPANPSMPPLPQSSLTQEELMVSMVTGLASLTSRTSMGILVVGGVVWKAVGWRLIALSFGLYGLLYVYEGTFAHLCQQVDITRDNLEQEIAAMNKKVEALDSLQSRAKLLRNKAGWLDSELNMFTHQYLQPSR

Sequences of proteins named here, by UniProt entry; tags and fusion partners are left off.
UniProt P11142: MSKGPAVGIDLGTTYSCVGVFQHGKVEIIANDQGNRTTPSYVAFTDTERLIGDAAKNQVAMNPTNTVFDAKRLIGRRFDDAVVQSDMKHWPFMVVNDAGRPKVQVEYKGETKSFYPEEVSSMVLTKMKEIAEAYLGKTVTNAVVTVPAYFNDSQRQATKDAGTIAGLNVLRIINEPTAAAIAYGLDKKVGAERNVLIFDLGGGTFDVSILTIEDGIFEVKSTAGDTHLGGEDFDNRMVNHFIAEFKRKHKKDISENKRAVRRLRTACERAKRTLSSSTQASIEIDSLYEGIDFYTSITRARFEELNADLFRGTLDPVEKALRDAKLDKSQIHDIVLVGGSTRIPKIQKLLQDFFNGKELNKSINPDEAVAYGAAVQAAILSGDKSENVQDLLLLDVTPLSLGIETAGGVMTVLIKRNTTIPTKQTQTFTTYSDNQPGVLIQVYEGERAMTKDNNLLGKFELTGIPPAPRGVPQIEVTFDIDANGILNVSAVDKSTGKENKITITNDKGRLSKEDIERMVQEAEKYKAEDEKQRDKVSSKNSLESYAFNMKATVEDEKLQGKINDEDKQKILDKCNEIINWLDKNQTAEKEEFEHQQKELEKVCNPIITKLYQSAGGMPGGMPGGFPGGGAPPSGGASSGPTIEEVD

[2] = target: T2, Flag-Mfn2, wild type (UniProt Q80U63); test: as above
T2 sequence: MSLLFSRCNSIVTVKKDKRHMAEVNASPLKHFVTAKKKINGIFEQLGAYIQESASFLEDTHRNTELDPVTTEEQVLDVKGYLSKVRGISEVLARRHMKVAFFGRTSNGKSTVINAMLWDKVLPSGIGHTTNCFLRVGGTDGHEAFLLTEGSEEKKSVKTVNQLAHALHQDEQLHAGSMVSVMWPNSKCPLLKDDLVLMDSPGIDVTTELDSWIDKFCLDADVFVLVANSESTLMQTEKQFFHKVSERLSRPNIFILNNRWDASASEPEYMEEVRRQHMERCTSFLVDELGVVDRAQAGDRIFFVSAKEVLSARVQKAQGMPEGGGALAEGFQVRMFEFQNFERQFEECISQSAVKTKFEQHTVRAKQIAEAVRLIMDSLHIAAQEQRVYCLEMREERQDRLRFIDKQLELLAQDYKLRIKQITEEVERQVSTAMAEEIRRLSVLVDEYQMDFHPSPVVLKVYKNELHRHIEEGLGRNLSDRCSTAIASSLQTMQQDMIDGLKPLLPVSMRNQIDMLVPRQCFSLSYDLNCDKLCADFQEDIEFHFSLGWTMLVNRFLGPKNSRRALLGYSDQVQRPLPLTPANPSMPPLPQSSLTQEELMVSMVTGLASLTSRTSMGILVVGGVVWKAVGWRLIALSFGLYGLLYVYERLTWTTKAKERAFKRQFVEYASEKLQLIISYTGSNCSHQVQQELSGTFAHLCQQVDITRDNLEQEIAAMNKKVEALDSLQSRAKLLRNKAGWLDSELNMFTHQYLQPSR

[3] = target: T3, Mfn2, endogenous in human atrial tissue (human (endogenous in human atrial tissue)) (UniProt O95140); test: co-IP; IP assay in human atrial tissue from obese and non-obese individuals
T3 sequence: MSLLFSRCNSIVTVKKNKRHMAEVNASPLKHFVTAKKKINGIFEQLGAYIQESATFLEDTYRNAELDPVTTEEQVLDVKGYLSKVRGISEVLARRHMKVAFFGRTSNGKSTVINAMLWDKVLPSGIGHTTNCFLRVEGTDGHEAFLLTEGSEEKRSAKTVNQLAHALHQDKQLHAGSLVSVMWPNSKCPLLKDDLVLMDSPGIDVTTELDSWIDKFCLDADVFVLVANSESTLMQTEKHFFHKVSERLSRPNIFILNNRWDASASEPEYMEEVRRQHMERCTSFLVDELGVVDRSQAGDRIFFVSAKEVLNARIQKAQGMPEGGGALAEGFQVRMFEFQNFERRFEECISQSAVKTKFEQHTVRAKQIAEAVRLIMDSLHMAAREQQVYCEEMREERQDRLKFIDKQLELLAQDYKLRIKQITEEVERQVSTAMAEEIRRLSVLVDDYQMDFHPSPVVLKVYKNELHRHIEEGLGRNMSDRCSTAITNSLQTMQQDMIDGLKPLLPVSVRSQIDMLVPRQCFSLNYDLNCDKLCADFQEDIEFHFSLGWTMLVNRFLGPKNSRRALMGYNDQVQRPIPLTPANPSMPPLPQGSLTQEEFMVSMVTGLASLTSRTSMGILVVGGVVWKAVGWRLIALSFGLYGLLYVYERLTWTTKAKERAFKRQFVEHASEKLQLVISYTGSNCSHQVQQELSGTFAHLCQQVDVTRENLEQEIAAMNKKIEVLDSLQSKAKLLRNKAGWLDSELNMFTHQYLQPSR

Row | Substance | binding [1] | binding [2] | binding [3]
1 | Hsc70 in 293T cells (from UniProt P11142 1-646) | no binding | binds | 
2 | Hsc70, endogenous in human atrial tissue (from UniProt P11142 1-646) |  |  | binds

Source: publication PMC11005711
